Test results taken from article doi:10.1101/2025.07.04.663186.
Numbering of substitutions follows the chain as printed. Names may count otherwise. Where two headings read alike, the source gives them in different places. Results are given in words; binding and its absence hold for the method and conditions named. Binding seen in cells or lysates may run through a third protein. Some results given as binding are weak or reduced against the parent protein; the word gives no strength. Where a sequence is shown, tags or fusion partners need not be part of it. Values belong to the molecule of their own block, whether it stands above or below them.

Sequences of proteins named here, by UniProt entry; tags and fusion partners are left off. A change or cut given only in a name is not applied to a line headed by its entry. Residues count along the entry.
UniProt Q96B97: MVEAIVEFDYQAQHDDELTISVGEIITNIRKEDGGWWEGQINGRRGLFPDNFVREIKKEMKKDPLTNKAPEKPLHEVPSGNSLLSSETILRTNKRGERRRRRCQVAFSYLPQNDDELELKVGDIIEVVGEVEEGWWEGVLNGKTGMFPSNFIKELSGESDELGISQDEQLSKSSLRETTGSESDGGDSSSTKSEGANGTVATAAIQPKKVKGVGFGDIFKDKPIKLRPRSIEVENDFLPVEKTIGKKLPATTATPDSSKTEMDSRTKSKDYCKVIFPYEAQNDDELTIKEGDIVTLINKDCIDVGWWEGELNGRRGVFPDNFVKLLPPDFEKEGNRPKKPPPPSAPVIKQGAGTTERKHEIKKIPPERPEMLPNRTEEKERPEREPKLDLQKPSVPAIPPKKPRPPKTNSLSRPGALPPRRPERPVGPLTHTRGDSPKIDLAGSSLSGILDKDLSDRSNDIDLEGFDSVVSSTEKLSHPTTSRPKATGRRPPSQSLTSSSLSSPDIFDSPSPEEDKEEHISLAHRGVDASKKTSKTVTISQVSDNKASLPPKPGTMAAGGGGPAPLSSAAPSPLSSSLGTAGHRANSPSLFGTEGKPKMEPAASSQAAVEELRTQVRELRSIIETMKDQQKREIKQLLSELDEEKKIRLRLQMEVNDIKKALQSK
myc-ASAP-3' (aa 589 - aa1129) (Q9ULH1, residues 589-1129): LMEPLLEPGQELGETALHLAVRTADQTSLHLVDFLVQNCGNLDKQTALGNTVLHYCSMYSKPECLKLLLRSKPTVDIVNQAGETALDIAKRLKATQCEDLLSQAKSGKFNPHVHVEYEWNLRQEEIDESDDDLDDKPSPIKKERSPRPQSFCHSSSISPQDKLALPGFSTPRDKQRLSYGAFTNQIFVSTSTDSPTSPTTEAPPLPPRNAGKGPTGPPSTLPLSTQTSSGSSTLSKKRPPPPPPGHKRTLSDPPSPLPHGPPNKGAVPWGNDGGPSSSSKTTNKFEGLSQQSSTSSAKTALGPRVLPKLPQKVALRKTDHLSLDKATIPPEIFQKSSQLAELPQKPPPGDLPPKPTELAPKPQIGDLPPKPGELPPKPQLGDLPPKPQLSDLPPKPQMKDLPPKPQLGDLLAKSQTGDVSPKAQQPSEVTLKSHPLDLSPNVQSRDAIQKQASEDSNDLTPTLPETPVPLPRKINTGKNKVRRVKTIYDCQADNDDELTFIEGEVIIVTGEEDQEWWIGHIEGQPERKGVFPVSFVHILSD
myc-ASAP1 construct 3 (residue 589-937) (Q9ULH1, residues 589-937): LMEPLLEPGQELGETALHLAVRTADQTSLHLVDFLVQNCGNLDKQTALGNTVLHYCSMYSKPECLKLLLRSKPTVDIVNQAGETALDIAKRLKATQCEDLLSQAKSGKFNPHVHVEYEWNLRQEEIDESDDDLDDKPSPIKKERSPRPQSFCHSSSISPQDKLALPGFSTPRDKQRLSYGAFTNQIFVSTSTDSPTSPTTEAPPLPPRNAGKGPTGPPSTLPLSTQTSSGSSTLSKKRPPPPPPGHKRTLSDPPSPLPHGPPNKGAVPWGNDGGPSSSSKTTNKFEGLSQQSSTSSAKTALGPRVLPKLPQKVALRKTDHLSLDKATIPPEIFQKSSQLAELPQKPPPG

Key:
Test in all cases: co-IP
[1] = target: T1, GFP-MYO1F (full-length) (human) (UniProt O00160)
T1 sequence: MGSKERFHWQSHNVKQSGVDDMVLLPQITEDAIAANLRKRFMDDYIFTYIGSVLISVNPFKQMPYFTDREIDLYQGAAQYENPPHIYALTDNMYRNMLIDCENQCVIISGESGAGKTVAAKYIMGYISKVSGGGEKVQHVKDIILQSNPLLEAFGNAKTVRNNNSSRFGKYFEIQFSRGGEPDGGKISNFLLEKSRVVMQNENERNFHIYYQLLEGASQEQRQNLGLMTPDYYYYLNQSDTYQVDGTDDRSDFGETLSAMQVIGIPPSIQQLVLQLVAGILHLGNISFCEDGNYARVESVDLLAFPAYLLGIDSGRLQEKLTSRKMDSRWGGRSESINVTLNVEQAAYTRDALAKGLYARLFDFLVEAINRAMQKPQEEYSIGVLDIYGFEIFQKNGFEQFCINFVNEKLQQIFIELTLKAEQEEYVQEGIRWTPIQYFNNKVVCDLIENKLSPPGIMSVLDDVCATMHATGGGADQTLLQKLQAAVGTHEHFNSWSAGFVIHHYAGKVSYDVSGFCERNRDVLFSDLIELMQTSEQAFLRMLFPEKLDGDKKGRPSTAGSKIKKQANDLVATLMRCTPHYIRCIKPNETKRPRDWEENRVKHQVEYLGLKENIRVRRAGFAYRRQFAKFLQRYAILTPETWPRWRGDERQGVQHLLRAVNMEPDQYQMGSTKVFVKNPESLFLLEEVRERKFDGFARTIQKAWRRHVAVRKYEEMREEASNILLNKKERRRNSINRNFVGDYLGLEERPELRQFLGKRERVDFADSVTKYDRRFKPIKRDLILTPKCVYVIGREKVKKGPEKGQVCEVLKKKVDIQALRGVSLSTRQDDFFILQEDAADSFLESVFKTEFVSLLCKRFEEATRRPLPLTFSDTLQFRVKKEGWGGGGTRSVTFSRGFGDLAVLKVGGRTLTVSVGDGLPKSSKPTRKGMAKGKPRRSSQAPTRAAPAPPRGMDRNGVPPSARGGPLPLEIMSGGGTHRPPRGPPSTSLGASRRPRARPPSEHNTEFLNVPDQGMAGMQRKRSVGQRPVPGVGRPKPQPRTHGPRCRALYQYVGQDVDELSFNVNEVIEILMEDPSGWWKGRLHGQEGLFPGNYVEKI

[2] = target: T1, GFP-MYO1F (full-length) (human); remark: listed apart in the source
GFP-MYO1F tail (human) = target: T2, GFP-MYO1F tail (human) (UniProt O00160)
T2 sequence: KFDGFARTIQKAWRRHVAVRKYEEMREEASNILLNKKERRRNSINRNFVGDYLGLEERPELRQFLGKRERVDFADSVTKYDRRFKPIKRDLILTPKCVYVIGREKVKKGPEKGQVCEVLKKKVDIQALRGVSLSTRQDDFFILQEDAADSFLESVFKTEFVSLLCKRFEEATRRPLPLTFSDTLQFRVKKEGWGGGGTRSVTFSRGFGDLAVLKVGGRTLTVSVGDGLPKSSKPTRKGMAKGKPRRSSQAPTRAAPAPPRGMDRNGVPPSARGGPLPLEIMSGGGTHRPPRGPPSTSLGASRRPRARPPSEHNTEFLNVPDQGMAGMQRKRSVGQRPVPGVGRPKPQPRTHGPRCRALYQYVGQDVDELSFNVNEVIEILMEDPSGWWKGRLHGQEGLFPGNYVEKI

[3] = target: T1, GFP-MYO1F (full-length) (human); remark: listed apart in the source

Molecule: myc-SH3KBP1 (from UniProt Q96B97 1-665)
binding [1]: binds

Molecule: myc-ASAP-3' (aa 589 - aa1129) (from UniProt Q9ULH1 589-1129) (domain or fragment)
binding [2]: binds
binding [1]: binds

Molecule: myc-ASAP1 construct 3 (residue 589-937) (from UniProt Q9ULH1 589-937) (domain or fragment)
binding [2]: binds

Next, values leading:

binding (GFP-MYO1F tail (human)): binds
Molecule: SH3KBP1, endogenous in RPE (from UniProt Q96B97 1-665)

binding [3]: binds
B1: myc-SH3BP2 ΔPPVPANK (protein, UniProt P78314)
chain: MAAEEMHWPVPMKAIGAQNLLTMPGGVAKAGYLHKKGGTQLQLLKWPLRFVIIHKRCVYYFKSSTSASPQGAFSLSGYNRVMRAAEETTSNNVFPFKIIHISKKHRTWFFSASSEEERKSWMALLRREIGHFHEKKDLPLDTSDSSSDTDSFYGAVERPVDISLSPYPTDNEDYEHDDEDDSYLEPDSPEPGRLEDALMHPPAYPPPPVPTPRKPAFSDMPRAHSFTSKGPGPLLPPPPPKHGLPDVGLAAEDSKRDPLCPRRAEPCPRVPATPRRMSDPPLSTMPTAPGLRKPPCFRESASPSPEPWTPGHGACSTSSAAIMATATSRNCDKLKSFHLSPRGPPTSEPPKFLKIAEEDPPREAAMPGLFVPPVAPRPPALKLPVPEAMARPAVLPRPEKPQLPHLQRSPPDGQSFRSFSFEKPRQPSQADTGGDDSDEDYEKVPLPNSVFVNTTESCEVERLFKATSPRGEPQDGLYCIRNSSTKSGKVLVVWDETSNKVRNYRIFEKDSKFYLEGEVLFVSVGSMVEHYHTHVLPSHQSLLLRHPYGYTGPR

binding [3]: binds
binding [1]: binds
B2: myc-SH3BP2 (wild-type) (protein, UniProt P78314 1-561)
chain: MAAEEMHWPVPMKAIGAQNLLTMPGGVAKAGYLHKKGGTQLQLLKWPLRFVIIHKRCVYYFKSSTSASPQGAFSLSGYNRVMRAAEETTSNNVFPFKIIHISKKHRTWFFSASSEEERKSWMALLRREIGHFHEKKDLPLDTSDSSSDTDSFYGAVERPVDISLSPYPTDNEDYEHDDEDDSYLEPDSPEPGRLEDALMHPPAYPPPPVPTPRKPAFSDMPRAHSFTSKGPGPLLPPPPPKHGLPDVGLAAEDSKRDPLCPRRAEPCPRVPATPRRMSDPPLSTMPTAPGLRKPPCFRESASPSPEPWTPGHGACSTSSAAIMATATSRNCDKLKSFHLSPRGPPTSEPPPVPANKPKFLKIAEEDPPREAAMPGLFVPPVAPRPPALKLPVPEAMARPAVLPRPEKPQLPHLQRSPPDGQSFRSFSFEKPRQPSQADTGGDDSDEDYEKVPLPNSVFVNTTESCEVERLFKATSPRGEPQDGLYCIRNSSTKSGKVLVVWDETSNKVRNYRIFEKDSKFYLEGEVLFVSVGSMVEHYHTHVLPSHQSLLLRHPYGYTGPR

binding [3]: binds
B3: myc-SH3BP2 K356A (protein, UniProt P78314 1-561)
chain: B2 chain with K356A
